Assay results published in the supplement of paper PMC10849652.
Some of the results follow.

Amino acid sequences for entries named in this document (tags omitted). A change or cut given only in a name is not applied to a line headed by its entry.
UniProt P51572: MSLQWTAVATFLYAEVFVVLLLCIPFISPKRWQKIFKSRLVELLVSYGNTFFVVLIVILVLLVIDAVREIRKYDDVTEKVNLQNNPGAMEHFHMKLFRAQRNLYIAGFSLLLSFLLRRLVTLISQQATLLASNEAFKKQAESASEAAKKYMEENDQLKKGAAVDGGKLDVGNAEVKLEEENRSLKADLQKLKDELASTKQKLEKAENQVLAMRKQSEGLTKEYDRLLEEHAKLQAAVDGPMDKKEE
UniProt Q92994: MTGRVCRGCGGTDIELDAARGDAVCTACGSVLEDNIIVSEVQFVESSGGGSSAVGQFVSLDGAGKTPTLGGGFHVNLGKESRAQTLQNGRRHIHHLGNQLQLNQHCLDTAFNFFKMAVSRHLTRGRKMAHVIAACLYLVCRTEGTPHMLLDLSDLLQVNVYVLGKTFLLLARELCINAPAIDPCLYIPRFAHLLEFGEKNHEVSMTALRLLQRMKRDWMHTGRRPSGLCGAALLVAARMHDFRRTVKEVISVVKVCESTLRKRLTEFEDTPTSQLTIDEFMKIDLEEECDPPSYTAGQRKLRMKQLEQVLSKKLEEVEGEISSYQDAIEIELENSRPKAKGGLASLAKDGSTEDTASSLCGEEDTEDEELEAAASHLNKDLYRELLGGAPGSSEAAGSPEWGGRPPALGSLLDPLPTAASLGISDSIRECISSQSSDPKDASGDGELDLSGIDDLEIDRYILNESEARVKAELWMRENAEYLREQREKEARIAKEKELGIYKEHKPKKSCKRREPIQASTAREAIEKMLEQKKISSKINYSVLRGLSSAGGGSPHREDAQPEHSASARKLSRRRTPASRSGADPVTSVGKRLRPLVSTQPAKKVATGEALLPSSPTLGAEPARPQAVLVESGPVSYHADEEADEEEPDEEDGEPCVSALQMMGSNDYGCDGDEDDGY
UniProt Q13867: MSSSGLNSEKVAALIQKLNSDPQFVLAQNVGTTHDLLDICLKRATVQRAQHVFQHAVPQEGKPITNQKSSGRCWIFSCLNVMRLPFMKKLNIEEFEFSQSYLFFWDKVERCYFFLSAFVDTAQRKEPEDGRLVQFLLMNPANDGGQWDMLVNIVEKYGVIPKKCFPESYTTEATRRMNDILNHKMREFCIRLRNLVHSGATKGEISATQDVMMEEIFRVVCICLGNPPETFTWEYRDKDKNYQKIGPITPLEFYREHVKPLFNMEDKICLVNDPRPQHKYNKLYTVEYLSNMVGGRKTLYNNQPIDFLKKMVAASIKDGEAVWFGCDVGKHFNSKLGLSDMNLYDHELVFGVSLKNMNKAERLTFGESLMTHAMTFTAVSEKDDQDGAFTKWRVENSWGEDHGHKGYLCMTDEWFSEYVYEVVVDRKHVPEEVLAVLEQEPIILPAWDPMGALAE
UniProt P43251: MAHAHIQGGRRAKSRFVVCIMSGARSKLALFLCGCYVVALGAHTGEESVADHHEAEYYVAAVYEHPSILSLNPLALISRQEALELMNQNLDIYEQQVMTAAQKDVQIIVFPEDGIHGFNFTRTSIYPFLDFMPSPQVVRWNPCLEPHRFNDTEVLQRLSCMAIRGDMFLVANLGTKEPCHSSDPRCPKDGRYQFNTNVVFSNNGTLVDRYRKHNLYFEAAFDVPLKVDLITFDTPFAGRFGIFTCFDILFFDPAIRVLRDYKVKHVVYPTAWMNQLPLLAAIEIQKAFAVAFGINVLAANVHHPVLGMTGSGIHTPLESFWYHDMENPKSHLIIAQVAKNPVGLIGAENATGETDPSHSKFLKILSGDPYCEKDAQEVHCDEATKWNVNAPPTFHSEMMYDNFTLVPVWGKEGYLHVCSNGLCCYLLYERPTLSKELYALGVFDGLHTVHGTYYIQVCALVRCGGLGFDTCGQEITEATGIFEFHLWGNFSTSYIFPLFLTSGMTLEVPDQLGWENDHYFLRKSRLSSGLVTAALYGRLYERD
UniProt Q9BXH1: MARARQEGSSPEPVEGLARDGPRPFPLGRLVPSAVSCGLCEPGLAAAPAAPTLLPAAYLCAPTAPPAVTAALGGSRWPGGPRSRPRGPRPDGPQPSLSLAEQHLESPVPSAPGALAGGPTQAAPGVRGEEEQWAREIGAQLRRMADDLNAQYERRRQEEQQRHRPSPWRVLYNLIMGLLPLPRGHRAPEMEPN
UniProt P15291: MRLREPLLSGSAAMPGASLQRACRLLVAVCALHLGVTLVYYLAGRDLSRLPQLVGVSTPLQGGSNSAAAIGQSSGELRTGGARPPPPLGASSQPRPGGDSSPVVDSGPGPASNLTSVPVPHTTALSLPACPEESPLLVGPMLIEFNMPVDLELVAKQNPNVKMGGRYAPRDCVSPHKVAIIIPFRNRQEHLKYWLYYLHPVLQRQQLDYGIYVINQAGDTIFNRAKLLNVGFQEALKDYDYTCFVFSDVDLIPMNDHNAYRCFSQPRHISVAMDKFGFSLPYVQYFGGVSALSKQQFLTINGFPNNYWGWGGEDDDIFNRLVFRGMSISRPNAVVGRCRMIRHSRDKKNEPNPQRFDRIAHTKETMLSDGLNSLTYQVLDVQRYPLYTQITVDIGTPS
UniProt P11274: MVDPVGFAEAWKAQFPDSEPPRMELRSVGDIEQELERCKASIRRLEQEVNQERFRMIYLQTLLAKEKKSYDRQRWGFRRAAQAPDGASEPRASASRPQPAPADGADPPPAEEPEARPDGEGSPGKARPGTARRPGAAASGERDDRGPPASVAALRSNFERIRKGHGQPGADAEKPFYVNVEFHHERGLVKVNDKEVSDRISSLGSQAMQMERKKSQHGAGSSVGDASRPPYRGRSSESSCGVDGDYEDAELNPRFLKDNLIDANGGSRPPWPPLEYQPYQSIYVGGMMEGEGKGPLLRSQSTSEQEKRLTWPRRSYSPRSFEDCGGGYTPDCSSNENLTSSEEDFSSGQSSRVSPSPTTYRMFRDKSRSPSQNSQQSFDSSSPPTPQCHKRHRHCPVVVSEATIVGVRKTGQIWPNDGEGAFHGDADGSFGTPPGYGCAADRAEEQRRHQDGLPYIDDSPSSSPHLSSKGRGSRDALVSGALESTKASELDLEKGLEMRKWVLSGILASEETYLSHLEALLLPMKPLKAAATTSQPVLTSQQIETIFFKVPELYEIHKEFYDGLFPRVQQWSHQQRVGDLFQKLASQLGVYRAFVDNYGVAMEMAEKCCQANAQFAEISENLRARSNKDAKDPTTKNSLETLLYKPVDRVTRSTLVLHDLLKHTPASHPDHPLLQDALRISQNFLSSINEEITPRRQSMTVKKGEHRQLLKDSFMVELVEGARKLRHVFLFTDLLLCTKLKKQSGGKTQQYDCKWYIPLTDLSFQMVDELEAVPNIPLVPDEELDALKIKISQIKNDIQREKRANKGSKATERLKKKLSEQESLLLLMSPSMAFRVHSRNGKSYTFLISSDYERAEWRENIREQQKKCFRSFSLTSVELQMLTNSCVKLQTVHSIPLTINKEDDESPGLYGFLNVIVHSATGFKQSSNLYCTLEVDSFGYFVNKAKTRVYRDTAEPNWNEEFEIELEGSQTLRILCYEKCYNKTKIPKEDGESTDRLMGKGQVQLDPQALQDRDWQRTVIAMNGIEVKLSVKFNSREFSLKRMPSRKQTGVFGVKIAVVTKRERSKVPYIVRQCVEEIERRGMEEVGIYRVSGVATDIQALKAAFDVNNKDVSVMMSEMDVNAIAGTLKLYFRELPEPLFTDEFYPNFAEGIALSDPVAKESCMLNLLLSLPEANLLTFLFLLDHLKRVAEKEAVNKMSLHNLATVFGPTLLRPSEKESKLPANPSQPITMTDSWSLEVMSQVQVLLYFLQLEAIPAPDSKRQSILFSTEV
UniProt O95817, whole entry, looked up: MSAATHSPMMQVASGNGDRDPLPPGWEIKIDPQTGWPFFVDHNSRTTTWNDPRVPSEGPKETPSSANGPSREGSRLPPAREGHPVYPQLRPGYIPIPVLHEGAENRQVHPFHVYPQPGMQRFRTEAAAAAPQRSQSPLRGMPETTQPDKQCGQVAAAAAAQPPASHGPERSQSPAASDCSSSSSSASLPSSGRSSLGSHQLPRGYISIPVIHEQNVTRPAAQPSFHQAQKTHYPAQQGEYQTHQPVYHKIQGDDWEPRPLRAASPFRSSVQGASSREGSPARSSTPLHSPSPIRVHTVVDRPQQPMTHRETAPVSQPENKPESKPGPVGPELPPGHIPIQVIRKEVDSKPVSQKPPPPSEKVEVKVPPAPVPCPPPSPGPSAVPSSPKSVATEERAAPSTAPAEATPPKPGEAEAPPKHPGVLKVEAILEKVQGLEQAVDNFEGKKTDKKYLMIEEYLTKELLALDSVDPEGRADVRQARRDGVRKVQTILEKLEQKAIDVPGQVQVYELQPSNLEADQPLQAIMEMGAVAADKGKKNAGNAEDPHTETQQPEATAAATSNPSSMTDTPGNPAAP
UniProt Q10589, whole entry, looked up: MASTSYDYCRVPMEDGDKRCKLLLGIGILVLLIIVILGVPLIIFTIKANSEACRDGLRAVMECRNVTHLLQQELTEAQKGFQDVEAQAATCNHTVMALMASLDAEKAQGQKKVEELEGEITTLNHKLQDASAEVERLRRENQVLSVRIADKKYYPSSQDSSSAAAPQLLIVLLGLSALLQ
UniProt P38398, whole entry, looked up: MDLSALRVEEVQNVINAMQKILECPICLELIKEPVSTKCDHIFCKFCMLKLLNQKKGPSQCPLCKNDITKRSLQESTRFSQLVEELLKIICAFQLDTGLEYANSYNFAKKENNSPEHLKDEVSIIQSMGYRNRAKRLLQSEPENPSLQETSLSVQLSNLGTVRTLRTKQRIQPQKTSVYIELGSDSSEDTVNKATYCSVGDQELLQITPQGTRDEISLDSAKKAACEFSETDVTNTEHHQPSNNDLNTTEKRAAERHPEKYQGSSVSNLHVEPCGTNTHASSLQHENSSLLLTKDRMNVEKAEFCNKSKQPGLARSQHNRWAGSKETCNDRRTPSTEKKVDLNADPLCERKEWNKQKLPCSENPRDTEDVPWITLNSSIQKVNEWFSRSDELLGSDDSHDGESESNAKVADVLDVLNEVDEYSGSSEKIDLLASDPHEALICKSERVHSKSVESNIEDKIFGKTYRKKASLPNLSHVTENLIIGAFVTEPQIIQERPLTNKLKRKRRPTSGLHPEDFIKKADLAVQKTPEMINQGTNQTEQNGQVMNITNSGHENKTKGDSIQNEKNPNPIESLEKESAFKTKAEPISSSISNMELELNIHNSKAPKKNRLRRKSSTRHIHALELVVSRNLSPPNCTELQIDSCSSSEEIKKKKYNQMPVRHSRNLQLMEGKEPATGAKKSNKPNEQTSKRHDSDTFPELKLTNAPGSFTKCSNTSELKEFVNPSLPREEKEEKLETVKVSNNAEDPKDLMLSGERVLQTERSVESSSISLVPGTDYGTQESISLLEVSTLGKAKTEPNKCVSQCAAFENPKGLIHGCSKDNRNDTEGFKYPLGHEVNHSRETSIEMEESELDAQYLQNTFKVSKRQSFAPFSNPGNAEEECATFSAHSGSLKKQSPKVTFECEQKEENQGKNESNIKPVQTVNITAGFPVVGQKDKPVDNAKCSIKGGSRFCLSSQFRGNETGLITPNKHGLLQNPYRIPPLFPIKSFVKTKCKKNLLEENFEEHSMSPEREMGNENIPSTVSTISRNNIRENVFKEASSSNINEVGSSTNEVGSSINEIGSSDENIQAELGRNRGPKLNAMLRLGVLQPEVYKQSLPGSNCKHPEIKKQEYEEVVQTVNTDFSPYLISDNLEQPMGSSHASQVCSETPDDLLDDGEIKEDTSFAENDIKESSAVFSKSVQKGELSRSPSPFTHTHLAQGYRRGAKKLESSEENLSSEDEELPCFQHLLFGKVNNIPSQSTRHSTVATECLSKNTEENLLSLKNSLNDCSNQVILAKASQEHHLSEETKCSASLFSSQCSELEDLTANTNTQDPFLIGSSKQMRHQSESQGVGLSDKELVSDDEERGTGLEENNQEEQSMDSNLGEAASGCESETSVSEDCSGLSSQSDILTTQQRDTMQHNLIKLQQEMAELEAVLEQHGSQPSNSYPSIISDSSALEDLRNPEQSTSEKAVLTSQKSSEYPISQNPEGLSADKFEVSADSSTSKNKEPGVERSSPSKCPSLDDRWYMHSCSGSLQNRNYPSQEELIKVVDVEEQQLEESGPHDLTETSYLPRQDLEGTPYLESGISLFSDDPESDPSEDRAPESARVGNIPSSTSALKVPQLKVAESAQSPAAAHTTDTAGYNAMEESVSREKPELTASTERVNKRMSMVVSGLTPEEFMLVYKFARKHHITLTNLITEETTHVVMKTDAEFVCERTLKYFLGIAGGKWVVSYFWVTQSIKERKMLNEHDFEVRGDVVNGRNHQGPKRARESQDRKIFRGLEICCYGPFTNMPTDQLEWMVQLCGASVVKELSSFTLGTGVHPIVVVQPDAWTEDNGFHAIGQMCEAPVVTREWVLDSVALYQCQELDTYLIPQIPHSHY
UniProt Q07812, whole entry, looked up: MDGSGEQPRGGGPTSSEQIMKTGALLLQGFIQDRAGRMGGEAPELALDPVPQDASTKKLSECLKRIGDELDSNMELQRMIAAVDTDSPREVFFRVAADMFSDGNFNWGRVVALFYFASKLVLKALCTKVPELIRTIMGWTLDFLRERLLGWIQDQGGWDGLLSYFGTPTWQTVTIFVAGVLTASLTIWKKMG

What was measured:
Assay in all cases: log2 fold change, soluble protein after heating vs DMSO (PISA); higher = thermal stabilisation; K562 lysate, 10 uM; active = over 0.2 and 3.5 SD of the protein, either way, in both replicates (recomputed)
erlotinib = compound: C#Cc1cccc(Nc2ncnc3cc(OCCOC)c(OCCOC)cc23)c1 [erlotinib]
In short: (§1)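 Soluble protein was defined as the supernatant remaining after 21,000xg for 90 min, following pooling of heated aliquots and adjustment to 0.5% NP-40 at 4°C. Before that, crude K562 extract at 1 mg/mL protein in PBS pH 7.4 with 1 mM MgCl2 was treated with 10 μM compound for 30 min and heated for 3 min across 48°C-58°C. Quantification used TMTpro 16plex LC-MS/MS with channel sums equalised, and values are log-two fold changes in thermal stability relative to solvent controls from duplicates.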

[1] = compound: C/C(=N\NC(=O)C1=CC(=CC=C1)S(=O)(=O)N2CCOCC2)/C3=C(C=CC(=C3)Cl)O
In short: as §1

[2] = compound: C1=CC(=CC=C1C2=NC3=C(N2)C=C(C=C3)C(=O)N)OC4=CC=C(C=C4)Cl
In short: as §1

[3] = compound: C1=CC2=C(C=CC(=C2)/C=C\3/C(=O)NC(=NCC4=CC=CS4)S3)N=C1
In short: as §1

[4] = compound: C1=CC2=NC=CN=C2C=C1/C=C/3\C(=O)NC(=O)S3
In short: as §1

[5] = compound: C1=CC=C(C=C1)C2=NC(=C(N2)C3=CC=NC=C3)C4=CC(=C(C=C4)Cl)O
In short: as §1

[6] = compound: C1=CC=C2C(=C1)C3=NNC4=CC=CC(=C43)C2=O
In short: as §1

[7] = compound: C1CCN(C1)C(=O)NC2=CC=CC(=C2)NC3=NC=C(C(=N3)NCCC4=CN=CN4)Br
In short: as §1

[8] = compound: C1CN(CCC1(CC2=CC=C(C=C2)Cl)N)C3=NC=NC4=C3C=CN4
In short: as §1

IRAK-1-4 Inhibitor I = compound: C1COCCN1CCN2C3=CC=CC=C3N=C2NC(=O)C4=CC(=CC=C4)[N+](=O)[O-] [IRAK-1-4 Inhibitor I]
In short: as §1

ibrutinib = compound: C=CC(=O)N1CCC[C@@H](n2nc(-c3ccc(Oc4ccccc4)cc3)c3c(N)ncnc32)C1 [ibrutinib]
In short: as §1

[9] = compound: CC(=O)c1cnc2ccc(-c3cc(Cl)c(O)c(Cl)c3)nc2c1N[C@H]1CC[C@H](CN(C)C)CC1
In short: as §1

ralimetinib = compound: CC(C)(C)Cn1c(N)nc2ccc(-c3[nH]c(C(C)(C)C)nc3-c3ccc(F)cc3)nc21 [ralimetinib]
In short: as §1

[10] = compound: CC(C)(O)CC(=O)NCCn1ccc2ncnc(Nc3ccc(Oc4cccc(C(F)(F)F)c4)c(Cl)c3)c21
In short: as §1

[11] = compound: CC(C)C1=C2N=C(C=C(N2N=C1)NCC3=CC=CC=C3)NCCCCCCN
In short: as §1

[12] = compound: CC1=C(C(CC(=O)N1)C2=CC=C(C=C2)C(F)(F)F)C(=O)NC3=C(C=C4C(=C3)C=NN4)F
In short: as §1

[13] = compound: CC1=C(C2=C(C=C1)C(=O)C3=CC=CC=C3N2CCCN)C
In short: as §1

[14] = compound: CC1=C(C=C(C=C1)NC(=O)C2=CC(=CC=C2)C(C)(C)C#N)NC3=CC4=C(C=C3)N=CN(C4=O)C
In short: as §1

[15] = compound: CC1=C(C=C(C=C1)NC(=O)C2=CC(=CC=C2)N(C)C)NC(=O)C3=CC=C(C=C3)O
In short: as §1

[16] = compound: CC1=CC=C(C=C1)SC2=C3C=C(SC3=CN=C2)C(=O)N
In short: as §1

Measured: log2 fold change

BCAP31 isoform 2 (UniProt P51572)
inactive: erlotinib -0.039 | [1] 0.006 | [2] -0.026 | [3] -0.013 | [4] -0.017 | [5] 0.035 | [6] 0.007 | [7] 0.001 | [8] -0.007 | IRAK-1-4 Inhibitor I -0.005 | ibrutinib -0.007 | [9] -0.012 | ralimetinib -0.024 | [10] 0.025 | [11] -0.011 | [12] 0.015 | [13] 0.009 | [14] -0.049 | [15] 0.005 | [16] -0.001

BRF1 (UniProt Q92994)
inactive: erlotinib -0.045 | [1] -0.023 | [2] 0.008 | [3] 0.076 | [4] -0.053 | [5] -0.159 | [6] -0.01 | [7] 0.064 | [8] -0.128 | IRAK-1-4 Inhibitor I 0.063 | ibrutinib 0.047 | ralimetinib -0.034 | [10] 0.016 | [11] -0.115 | [12] 0.285 | [13] 0.055 | [14] 0.03 | [15] -0.123

BIRC6 (UniProt Q9NR09)
inactive: erlotinib 0.052 | [1] 0.005 | [2] -0.027 | [3] 0.018 | [4] -0.007 | [5] 0.005 | [6] -0.015 | [7] -0.005 | [8] 0.01 | IRAK-1-4 Inhibitor I 0.002 | ibrutinib 0 | [9] -0.002 | ralimetinib 0.014 | [10] -0.015 | [11] -0.025 | [12] 0.008 | [13] 0 | [14] -0.018 | [15] -0.008 | [16] 0.006

BNIP2 (UniProt J3KN59)
inactive: erlotinib -0.075 | [1] -0.006 | [2] -0.116 | [3] 0.065 | [4] 0.006 | [5] -0.025 | [6] 0.02 | [7] -0.185 | [8] 0.021 | IRAK-1-4 Inhibitor I -0.023 | ibrutinib 0.047 | [9] 0.008 | ralimetinib 0.046 | [10] -0.021 | [11] -0.002 | [12] 0.013 | [13] 0.034 | [14] -0.035 | [15] 0 | [16] 0.025

BLMH (UniProt Q13867)
inactive: erlotinib -0.003 | [1] -0.02 | [2] 0.027 | [3] 0.003 | [4] 0.042 | [5] -0.003 | [6] -0.002 | [7] -0.019 | [8] 0.001 | IRAK-1-4 Inhibitor I 0.025 | ibrutinib -0.033 | [9] 0.027 | ralimetinib 0.028 | [10] -0.021 | [11] 0.019 | [12] -0.035 | [13] 0.022 | [14] 0.009 | [15] 0.002 | [16] 0.03

BTD isoform 3 (UniProt P43251)
inactive: erlotinib 0.021 | [1] 0.037 | [2] -0.015 | [3] -0.001 | [4] 0.01 | [5] 0.016 | [6] -0.006 | [7] 0.023 | [8] -0.023 | IRAK-1-4 Inhibitor I 0.043 | ibrutinib 0.032 | [9] -0.034 | ralimetinib 0.046 | [10] -0.104 | [11] -0.03 | [13] 0.014 | [14] -0.005 | [15] -0.057 | [16] -0.072

Random excerpt: two records from the list
BNIP2 (UniProt J3KN59)
inactive: erlotinib -0.075 | [1] -0.006 | [2] -0.116 | [3] 0.065 | [4] 0.006 | [5] -0.025 | [6] 0.02 | [7] -0.185 | [8] 0.021 | IRAK-1-4 Inhibitor I -0.023 | ibrutinib 0.047 | [9] 0.008 | ralimetinib 0.046 | [10] -0.021 | [11] -0.002 | [12] 0.013 | [13] 0.034 | [14] -0.035 | [15] 0 | [16] 0.025

BLMH (UniProt Q13867)
inactive: erlotinib -0.003 | [1] -0.02 | [2] 0.027 | [3] 0.003 | [4] 0.042 | [5] -0.003 | [6] -0.002 | [7] -0.019 | [8] 0.001 | IRAK-1-4 Inhibitor I 0.025 | ibrutinib -0.033 | [9] 0.027 | ralimetinib 0.028 | [10] -0.021 | [11] 0.019 | [12] -0.035 | [13] 0.022 | [14] 0.009 | [15] 0.002 | [16] 0.03

Additional entries

BBC3 (UniProt Q9BXH1)
inactive: erlotinib -0.068 | [1] 0.041 | [2] 0.075 | [3] 0.07 | [4] -0.01 | [5] -0.048 | [6] -0.096 | [7] -0.04 | [8] 0.058 | IRAK-1-4 Inhibitor I -0.16 | ibrutinib 0.038 | [9] 0.016 | ralimetinib 0.162 | [10] 0.126 | [11] -0.026 | [13] 0.191 | [14] -0.025 | [15] 0.006 | [16] -0.072

BPNT1 (UniProt A6NF51)
inactive: erlotinib 0.007 | [1] 0.166 | [2] 0.088 | [3] -0.144 | [4] -0.074 | [5] 0 | [6] -0.017 | [7] -0.229 | [8] 0.13 | IRAK-1-4 Inhibitor I 0.028 | ibrutinib 0.116 | ralimetinib 0.02 | [10] -0.022 | [11] -0.09 | [13] -0.178 | [15] 0.07

B4GALT1 (UniProt P15291)
inactive: erlotinib -0.03 | [1] 0.052 | [2] -0.037 | [3] -0.123 | [4] -0.059 | [5] -0.018 | [6] -0.012 | [7] 0.006 | [8] 0.003 | IRAK-1-4 Inhibitor I 0.061 | ibrutinib -0.001 | [9] 0.011 | ralimetinib 0.027 | [10] -0.123 | [11] 0.05 | [12] 0.05 | [14] -0.01 | [15] 0.013 | [16] 0.005

BCR (UniProt P11274)
inactive: erlotinib -0.006 | [1] 0.037 | [2] 0.047 | [3] 0.012 | [4] -0.01 | [5] 0.004 | [6] -0.052 | [7] -0.025 | [8] -0.011 | IRAK-1-4 Inhibitor I -0.041 | ibrutinib -0.026 | [9] 0.037 | ralimetinib 0.025 | [10] -0.025 | [11] 0.014 | [12] -0.001 | [13] -0.032 | [14] 0.025 | [15] 0 | [16] 0.017

BAG3 (UniProt O95817)
inactive: erlotinib -0.047 | [1] 0.001 | [2] -0.02 | [3] -0.021 | [4] -0.005 | [5] 0.005 | [6] -0.002 | [7] 0.001 | [8] -0.003 | IRAK-1-4 Inhibitor I 0.008 | ibrutinib 0.05 | [9] -0.02 | ralimetinib -0.049 | [10] 0 | [11] -0.026 | [12] -0.003 | [13] -0.042 | [14] -0.004 | [15] -0.037 | [16] -0.014

BST2 (UniProt Q10589)
inactive: erlotinib -0.061 | [1] -0.003 | [2] 0.011 | [3] 0.011 | [4] -0.003 | [5] -0.056 | [6] 0.039 | [7] -0.018 | [8] 0.03 | IRAK-1-4 Inhibitor I -0.007 | ibrutinib 0.025 | [9] -0.011 | ralimetinib -0.003 | [10] -0.05 | [11] -0.059 | [12] -0.042 | [13] 0.027 | [14] -0.016 | [15] -0.021 | [16] -0.057

BCLAF1 (UniProt Q9NYF8)
inactive: erlotinib 0.032 | [1] 0.026 | [2] 0.022 | [3] 0.007 | [4] -0.02 | [5] 0.017 | [6] 0 | [7] 0.01 | [8] 0.03 | IRAK-1-4 Inhibitor I 0.002 | ibrutinib 0.01 | [9] -0.021 | ralimetinib -0.045 | [10] -0.008 | [11] 0.032 | [12] -0.014 | [13] 0.008 | [14] -0.027 | [15] 0.081 | [16] -0.006

BRCA1 isoform 7 (UniProt P38398)
inactive: erlotinib 0.003 | [1] 0.05 | [2] 0.021 | [3] -0.029 | [4] -0.041 | [5] -0.009 | [6] -0.009 | [7] -0.035 | [8] 0 | IRAK-1-4 Inhibitor I 0.053 | ibrutinib 0.017 | [9] -0.019 | ralimetinib -0.014 | [10] -0.02 | [11] -0.022 | [12] 0.039 | [13] -0.018 | [14] 0.041 | [15] 0.01 | [16] -0.067

BAX isoform 2 (UniProt Q07812)
inactive: erlotinib -0.018 | [1] -0.032 | [2] 0.047 | [3] -0.043 | [4] -0.046 | [5] -0.025 | [6] -0.014 | [7] -0.037 | [8] -0.011 | IRAK-1-4 Inhibitor I 0.05 | ibrutinib -0.019 | [9] -0.037 | ralimetinib -0.013 | [10] -0.031 | [11] -0.027 | [12] 0.054 | [13] -0.01 | [14] 0.011 | [15] 0.028 | [16] 0.02

BTN2A1 (UniProt Q7KYR7)
inactive: erlotinib 0.013 | [1] -0.143 | [2] 0.017 | [3] -0.006 | [4] -0.046 | [5] 0.01 | [6] -0.189 | [7] 0.022 | [8] 0.029 | IRAK-1-4 Inhibitor I -0.019 | ibrutinib 0.01 | [9] -0.148 | ralimetinib -0.024 | [10] -0.096 | [11] -0.03 | [12] 0.056 | [13] -0.144 | [14] 0.064 | [15] -0.023 | [16] -0.014

BTF3L4 (UniProt Q96K17)
inactive: erlotinib -0.054 | [1] 0.007 | [2] 0.002 | [3] -0.016 | [4] -0.01 | [5] -0.011 | [6] 0.045 | [7] 0.004 | [8] 0.001 | IRAK-1-4 Inhibitor I 0.056 | ibrutinib -0.019 | [9] 0.027 | ralimetinib 0.04 | [10] -0.014 | [11] -0.041 | [12] -0.003 | [13] 0.014 | [14] -0.009 | [15] -0.023 | [16] 0.021
